In publication PMC4458714:
Results are given in words; binding and its absence hold for the method and conditions named. Binding seen in cells or lysates may run through a third protein. Some entries that bind do so weakly or less than the wild type.

Protein sequences, listed by entry. Tags and fused reporters are not part of them.
UniProt O97159: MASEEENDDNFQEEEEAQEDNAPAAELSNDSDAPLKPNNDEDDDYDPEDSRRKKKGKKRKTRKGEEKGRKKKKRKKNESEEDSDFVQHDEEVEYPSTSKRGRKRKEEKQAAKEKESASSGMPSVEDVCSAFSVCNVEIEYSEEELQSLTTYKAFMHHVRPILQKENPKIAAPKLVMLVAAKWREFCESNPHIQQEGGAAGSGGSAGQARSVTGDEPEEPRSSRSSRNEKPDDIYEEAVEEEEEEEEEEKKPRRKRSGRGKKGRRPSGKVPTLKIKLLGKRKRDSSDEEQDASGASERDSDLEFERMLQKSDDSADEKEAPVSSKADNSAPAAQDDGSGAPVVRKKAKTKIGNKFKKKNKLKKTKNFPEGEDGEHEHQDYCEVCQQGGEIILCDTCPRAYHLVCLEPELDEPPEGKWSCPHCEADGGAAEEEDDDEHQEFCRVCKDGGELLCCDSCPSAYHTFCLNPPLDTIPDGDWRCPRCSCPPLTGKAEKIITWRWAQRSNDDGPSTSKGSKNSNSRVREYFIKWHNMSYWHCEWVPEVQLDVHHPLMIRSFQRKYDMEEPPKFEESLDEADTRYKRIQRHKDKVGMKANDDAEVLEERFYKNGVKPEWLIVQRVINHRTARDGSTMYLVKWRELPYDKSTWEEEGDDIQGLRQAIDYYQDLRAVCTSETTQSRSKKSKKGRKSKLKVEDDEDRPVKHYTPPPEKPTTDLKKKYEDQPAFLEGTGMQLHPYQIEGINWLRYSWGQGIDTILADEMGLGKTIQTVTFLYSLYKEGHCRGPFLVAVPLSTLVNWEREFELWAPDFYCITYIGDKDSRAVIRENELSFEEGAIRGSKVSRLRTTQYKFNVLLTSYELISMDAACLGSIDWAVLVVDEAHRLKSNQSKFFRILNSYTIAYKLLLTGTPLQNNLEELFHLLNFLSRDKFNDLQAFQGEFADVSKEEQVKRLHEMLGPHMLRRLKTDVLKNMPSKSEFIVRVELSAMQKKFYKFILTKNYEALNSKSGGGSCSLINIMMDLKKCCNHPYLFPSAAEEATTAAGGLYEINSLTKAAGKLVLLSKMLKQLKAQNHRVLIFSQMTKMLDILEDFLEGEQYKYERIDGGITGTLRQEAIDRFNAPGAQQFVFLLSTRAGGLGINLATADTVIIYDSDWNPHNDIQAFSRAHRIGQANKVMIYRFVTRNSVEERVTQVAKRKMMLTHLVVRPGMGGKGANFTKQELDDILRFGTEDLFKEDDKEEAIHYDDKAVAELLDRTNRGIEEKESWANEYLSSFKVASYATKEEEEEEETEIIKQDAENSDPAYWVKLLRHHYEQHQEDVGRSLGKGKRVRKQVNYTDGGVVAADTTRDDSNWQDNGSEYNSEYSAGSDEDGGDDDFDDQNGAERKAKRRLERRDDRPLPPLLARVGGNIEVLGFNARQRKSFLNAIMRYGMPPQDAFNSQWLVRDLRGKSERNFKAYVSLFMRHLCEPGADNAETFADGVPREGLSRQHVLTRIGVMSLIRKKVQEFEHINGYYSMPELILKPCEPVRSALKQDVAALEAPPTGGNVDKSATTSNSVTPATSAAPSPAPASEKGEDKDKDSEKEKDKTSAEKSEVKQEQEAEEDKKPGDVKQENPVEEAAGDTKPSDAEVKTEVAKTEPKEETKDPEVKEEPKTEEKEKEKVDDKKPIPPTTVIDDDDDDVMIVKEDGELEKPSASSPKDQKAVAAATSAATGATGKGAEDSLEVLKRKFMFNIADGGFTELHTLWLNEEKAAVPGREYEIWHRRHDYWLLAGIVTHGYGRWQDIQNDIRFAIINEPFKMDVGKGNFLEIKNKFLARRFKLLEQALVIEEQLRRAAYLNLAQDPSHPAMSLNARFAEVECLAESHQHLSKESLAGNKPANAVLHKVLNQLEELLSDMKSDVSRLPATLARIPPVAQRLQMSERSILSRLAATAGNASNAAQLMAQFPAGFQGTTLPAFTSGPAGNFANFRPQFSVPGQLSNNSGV

Assays:
[1] = target: Mi-2 (Drosophila melanogaster (endogenous in S2 cells)) (UniProt O97159); assay: co-IP; endogenous proteins: 2 mg untransfected S2 cell extract with a specific antibody (anti-MEP-1, anti-Mi-2 or anti-p66) overnight at 4 °C, Protein G agarose, Western blot; with or without MSL2 knockdown; mock IP with generic IgG
[2] = target: Mi-2 (Drosophila melanogaster (endogenous in S2 cells)) (UniProt O97159); assay: co-IP; endogenous proteins from S2 cell extracts after RNase treatment, Western blot for Topo II

binding [1]	Binder	binding [2]
no binding	MSL1 (protein, UniProt P50535 1-1039) MDKRFKWPPKKRANYLESPYPHIPSRGRQRNLHGHPNQTQHLHQHPGKIYERQQYGNGRGGHGGGNNNYRKLLHSLPAEHGGGAMAPPSSGGTVCAGADMVKLISENNNLRRMVMLNLNLMQEQTDSIAAKDKELDDQSAKMSVVKAQNEELKQAVAQLEAANQELCKQLRRKNQRRNDNDDDDDDPPLPPAAPQQKLIRCHAETQTVFREREQGTQTIDAQPQFANALPRGINMKESPALDHHAGAVTNQPASKRSESKGRGEFNGKKVSTFILQRMNQDFEHHIHEQTEVAEEHEMEAHKEQISQEEDQLVAEEDHLHMQEVHTEEVVGGDIFHDALESIEMEVVTEELVDMEEHGQSVDANGHIEEDDDEDDEDDENSDKDDDSEEDDYPWMHSDADVNARTEEELWQNQNYLLELDPTEEKTCAPSAHSTPNHQQKSSTQAEIRKEGNQNRITEKLLQLKPEPMVDALEAPILPKWVAFKKKDKEHESVPESPEVPKQQPHQEDAIVDHNAIKNQLEVPKPDLKPKDQPKDEQRQDGQLDVRVEPQEDVRKVQKETLKRQPEDAPKHLPKAVAPKVTKTSSRESTLPKANTADIKDAPAQKVIANHQSTKTQTDPVKTQRLQVKIRQYEMHPDMRTGSSAPSDIRKQKNVDPVSTPETKTIKSKSMLVNDKKTTSETSQSPDQEIDVETVRRKLAEHLKKELLSQSHSSQVTLKKIRERVATNLIYPPPSAPVSSTTITPAPTPSTTPTPGSTPQHAVTSSMDQEISAAKSKSKAAEQIATPLTPQSNSSVSSTTSTIRKTLNNCSPHTYSKATARSGKLQSRFRTATFPYSTRTWEDQEFHCDNEFFLEEADELLADNPSLEIPKWRDVPVPPSSDKIDTELLSDATFERRHQKYVKDEVDRKCRDARYMKEQIRLEQLRMRRNQDEVLVALDPLRASTFYPLPEDIEAIQFVNEVTVQAFGENVVNMEARDDFGVPWVDAIEAPTSIARSKALAEPVATLASKKIPTTAAEARHQENHSSYVFPKRRKRQKNR	–
binds	Topo II (protein, UniProt P15348 1-1447) MENGNKALSIEQMYQKKSQLEHILLRPDSYIGSVEFTKELMWVYDNSQNRMVQKEISFVPGLYKIFDEILVNAADNKQRDKSMNTIKIDIDPERNMVSVWNNGQGIPVTMHKEQKMYVPTMIFGHLLTSSNYNDDEKKVTGGRNGYGAKLCNIFSTSFTVETATREYKKSFKQTWGNNMGKASDVQIKDFNGTDYTRITFSPDLAKFKMDRLDEDIVALMSRRAYDVAASSKGVSVFLNGNKLGVRNFKDYIDLHIKNTDDDSGPPIKIVHEVANERWEVACCPSDRGFQQVSFVNSIATYKGGRHVDHVVDNLIKQLLEVLKKKNKGGINIKPFQVRNHLWVFVNCLIENPTFDSQTKENMTLQQKGFGSKCTLSEKFINNMSKSGIVESVLAWAKFKAQNDIAKTGGRKSSKIKGIPKLEDANEAGGKNSIKCTLILTEGDSAKSLAVSGLGVIGRDLYGVFPLRGKLLNVREANFKQLSENAEINNLCKIIGLQYKKKYLTEDDLKTLRYGKVMIMTDQDQDGSHIKGLLINFIHTNWPELLRLPFLEEFITPIVKATKKNEELSFYSLPEFEEWKNDTANHHTYNIKYYKGLGTSTSKEAKEYFQDMDRHRILFKYDGSVDDESIVMAFSKKHIESRKVWLTNHMDEVKRRKELGLPERYLYTKGTKSITYADFINLELVLFSNADNERSIPSLVDGLKPGQRKVMFTCFKRNDKREVKVAQLSGSVAEMSAYHHGEVSLQMTIVNLAQNFVGANNINLLEPRGQFGTRLSGGKDCASARYIFTIMSPLTRLIYHPLDDPLLDYQVDDGQKIEPLWYLPIIPMVLVNGAEGIGTGWSTKISNYNPREIMKNLRKMINGQEPSVMHPWYKNFLGRMEYVSDGRYIQTGNIQILSGNRLEISELPVGVWTQNYKENVLEPLSNGTEKVKGIISEYREYHTDTTVRFVISFAPGEFERIHAEEGGFYRVFKLTTTLSTNQMHAFDQNNCLRRFPTAIDILKEYYKLRREYYARRRDFLVGQLTAQADRLSDQARFILEKCEKKLVVENKQRKAMCDELLKRGYRPDPVKEWQRRIKMEDAEQADEEDEEEEEAAPSVSSKAKKEKEVDPEKAFKKLTDVKKFDYLLGMSMWMLTEEKKNELLKQRDTKLSELESLRKKTPEMLWLDDLDALESKLNEVEEKERAEEQGINLKTAKALKGQKSASAKGRKVKSMGGGAGAGDVFPDPDGEPVEFKITEEIIKKMAAAAKVAQAAKEPKKPKEPKEPKVKKEPKGKQIKAEPDASGDEVDEFDAMVEGGSKTSPKAKKAVVKKEPGEKKPRQKKENGGGLKQSKIDFSKAKAKKSDDDVEEVTPRAERPGRRQASKKIDYSSLFSDEEEDGGNVGSDDDGNASDDDSPKRPAKRGREDESSGGAKKKAPPKKRRAVIESDDDDIEIDEDDDDDSDFNC	no binding (condition: after RNase treatment)
